Measured values: US20120172578A1 (VLAAMS INTERUNIVERSITAIR INSTITUUT VOOR BIOTECHNOLOGIE, published 2012)

B1: cAbAn04 (VHH)
VHH: QVQLVESGGGSVEAGGSLRLSCVVSGYSVSIGCMAWFRQAPGSGREGVAGISRGGSMTDYTASVKGRFTISRDNDQRTVTLQMNSLKPEDTAVYYCARDGPEIATMIGGSRGRGTQVTVSS
B2: cAbBLA01 (VHH)
VHH: QLQLVESGGGSVQSGGSLRLSCKVSGYIGSTNCMGWFRQAPGKEREGVASLFTGSGNTYYGDSVKGRFTISEDNAKNTVSLQMNSLKPEDTAMYYCASSSNVGSDESCGRKNTRQFVYTYQGQGTQVTVSS
B3: C4 PABP2 (VHH)
VHH: QVQLQESGGGLVQPGGSLRLSCAASGFTFSRSWMYWVRQAPGKGLEWVSSITPGGSEPFYVDSVKGRFTISRDNAKNTLYLQMNSLKSEDTAVYFCAKDSKNGPRGQGTQVTVSS
B4: E3 PABP2 (VHH)
VHH: B3 VHH with S56T, P58A, V61A, V93L
B5: F6 PABP2 (VHH)
VHH: QVQLQESGGGLVQPGGSLRLSCATSGFIFSDYWMYWVRQAPGKGLEWVSSITPGASTTLYADSVKGRFTISRDNAKNTLYLQMNSLKSEDTAVYYCAKGSKIGPRGQGTQVTVSS

Experiments:
[1] = target: Variant Surface Glycoprotein trypanosome (trypanosome); assay: phage display panning; evaluated in ELISA
[2] = target: Variant Surface Glycoprotein trypanosome (trypanosome); assay: column 'Antigen recognized by antibody'
β-lactamase [3] = assay: phage display panning; evaluated in ELISA
β-lactamase [4] = assay: column 'Antigen recognized by antibody'
[5] = target: Poly A Binding Protein Type 2; assay: phage display panning; evaluated in ELISA
[6] = target: Poly A Binding Protein Type 2; assay: column 'Antigen recognized by antibody'

| Binder | binding [5] | binding [6] | also measured |
| --- | --- | --- | --- |
| B1 | – | – | binding [1]: binds; binding [2]: binds |
| B2 | – | – | binding (β-lactamase [3]): binds; binding (β-lactamase [4]): binds |
| B3 | binds | binds | – |
| B4 | binds | binds | – |
| B5 | binds | binds | – |

Changes are numbered by the printed parent chain. These are yes or no findings as the source states them, for the method shown. Binding calls can cover weak binding; strength is not graded here.
